# Laboratory results as given in paper PMC11395111.
# By UniProt entry, the sequences of proteins in these tests, tags left out. Where a name states a change or a piece, a line headed by the entry shows the natural chain unless it says otherwise.
# UniProt O53943: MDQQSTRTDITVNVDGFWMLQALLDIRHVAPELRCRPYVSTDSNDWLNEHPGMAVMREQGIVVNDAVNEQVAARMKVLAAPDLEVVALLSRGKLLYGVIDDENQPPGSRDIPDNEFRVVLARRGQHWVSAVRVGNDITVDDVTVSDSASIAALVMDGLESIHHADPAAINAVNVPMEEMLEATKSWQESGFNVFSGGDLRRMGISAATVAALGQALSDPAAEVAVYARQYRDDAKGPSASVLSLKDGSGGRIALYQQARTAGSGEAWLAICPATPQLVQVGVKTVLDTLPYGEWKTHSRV
# UniProt P9WI05: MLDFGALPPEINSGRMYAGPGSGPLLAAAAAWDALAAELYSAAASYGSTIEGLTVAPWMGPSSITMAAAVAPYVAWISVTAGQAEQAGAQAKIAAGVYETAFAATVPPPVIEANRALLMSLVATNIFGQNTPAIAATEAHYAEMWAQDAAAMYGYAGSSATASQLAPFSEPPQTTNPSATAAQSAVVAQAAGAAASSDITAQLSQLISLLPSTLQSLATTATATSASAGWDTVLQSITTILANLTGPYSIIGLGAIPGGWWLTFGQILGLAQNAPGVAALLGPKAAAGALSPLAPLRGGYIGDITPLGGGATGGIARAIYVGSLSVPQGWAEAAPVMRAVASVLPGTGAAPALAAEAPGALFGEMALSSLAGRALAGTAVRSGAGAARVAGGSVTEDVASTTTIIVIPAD
# Molecular target: GST-EspG5 (UniProt O53943)
# Assay: pull-down; […]; 20 mM HEPES pH 7.5, 250 mM NaCl; […]; both purified
substance,measurement,value
His-tagged PPE32 (from UniProt P9WI05),binding,binds

# These are yes or no findings as the source states them, for the method shown. Binding can be weak; no strength is given.
